Measurements from publication PMC8302244 (CPT: Pharmacometrics & Systems Pharmacology, 2021).

Experiments:
[1] = cited from earlier work
[2] = oral, patients; cited from earlier work
[3] = test system: human cytochrome P450 3A4 (CYP3A4); conditions: human liver microsomes; cited from earlier work
[4] = Predicted individual exposure metrics; conditions: for AUC(0-t) / Cmax: human, in vivo; for AUC(0-t): AUC0–24 Mean; for Cmax: Cmax Mean
[5] = Semimechanistic population PK model; conditions: for maximum increase in hepatic enzyme amount: maximum estimate for any subject in the enzyme compartment of the final model, Run 32, 75 mg dose
[6] = Besylate substudy—80 mg q.d., W1D1
[7] = 40 mg, Part 1—40 mg b.i.d., W3D4
[8] = 80 mg, Besylate substudy—80 mg q.d., W3D4
[9] = final model Run 32, oral, patients with solid tumors

CCNC(=O)C[C@@H]1N=C(c2ccc(Cl)cc2)c2cc(OC)ccc2-n2c(C)nnc21 [Molibresib]
free fraction in plasma [1]: approximately 0.2
terminal half‐life (t1/2) [2]: 3 to 7 h
in vitro substrate of human CYP3A4 [3]: substrate
Cmax Mean [4, 6]: 1160.0 ng/mL
Cmin Mean [4, 6]: 22.2 ng/mL
Cmin Mean ([4]; Besylate substudy—80 mg q.d., W3D4): 22.7 ng/mL
AUC0–24 Mean ([4]; Part 1—40 mg b.i.d., W1D1): 2790 ng/mL
Cmax Mean ([4]; Part 1—40 mg b.i.d., W1D1): 517.0 ng/mL
Cmin Mean ([4]; Part 1—40 mg b.i.d., W1D1): 55.9 ng/mL
Cmin Mean ([4]; Part 1—40 mg b.i.d., W3D4): 19.2 ng/mL
AUC0–24 Mean ([4]; Part 1—60 mg q.d., W1D1): 3600 ng/mL
Cmin Mean ([4]; Part 1—60 mg q.d., W1D1): 5.7 ng/mL
AUC0–24 Mean ([4]; Part 1—60 mg q.d., W3D4): 3170 ng/mL
Cmax Mean ([4]; Part 1—60 mg q.d., W3D4): 628.0 ng/mL
Cmin Mean ([4]; Part 1—60 mg q.d., W3D4): 10.2 ng/mL
AUC0–24 Mean ([4]; Part 1—80 mg q.d., W1D1): 5290 ng/mL
Cmin Mean ([4]; Part 1—80 mg q.d., W1D1): 47.7 ng/mL
Cmin Mean ([4]; Part 1—80 mg q.d., W3D4): 12.3 ng/mL
AUC0–24 Mean ([4]; Part 1—100 mg q.d., W1D1): 5980 ng/mL
Cmax Mean ([4]; Part 1—100 mg q.d., W1D1): 920.0 ng/mL
Cmin Mean ([4]; Part 1—100 mg q.d., W1D1): 33.6 ng/mL
AUC0–24 Mean ([4]; Part 1—100 mg q.d., W3D4): 5350 ng/mL
Cmax Mean ([4]; Part 1—100 mg q.d., W3D4): 810.0 ng/mL
Cmin Mean ([4]; Part 1—100 mg q.d., W3D4): 51.4 ng/mL
AUC0–24 Mean ([4]; Part 2—75 mg q.d., W1D1): 5260 ng/mL
Cmin Mean ([4]; Part 2—75 mg q.d., W1D1): 40.9 ng/mL
Cmin Mean ([4]; Part 2—75 mg q.d., W3D4): 22.7 ng/mL
AUC(0-t) [4, 7]: 3240 ng·h/mL
Cmax [4, 7]: 457 ng/mL
Cmax ([4]; 60 mg, Part 1—60 mg q.d., W1D1): 680 ng/mL
AUC(0-t) ([4]; 75 mg, Part 2—75 mg q.d., W3D4): 4330 ng·h/mL
Cmax ([4]; 75 mg, Part 2—75 mg q.d., W1D1): 935 ng/mL
Cmax ([4]; 75 mg, Part 2—75 mg q.d., W3D4): 785 ng/mL
AUC(0-t) ([4]; 80 mg, Besylate substudy—80 mg q.d., W1D1): 6610 ng·h/mL
AUC(0-t) [4, 8]: 5470 ng·h/mL
AUC(0-t) ([4]; 80 mg, Part 1—80 mg q.d., W3D4): 3500 ng·h/mL
Cmax [4, 8]: 1060 ng/mL
Cmax ([4]; 80 mg, Part 1—80 mg q.d., W1D1): 933 ng/mL
Cmax ([4]; 80 mg, Part 1—80 mg q.d., W3D4): 775 ng/mL
Molibresib peripheral volume of distribution V2/F ([5]; final model Run 32): 17 L
autoinduction ([5]; final model Run 32): weak to moderate
Lagtime ALAG ([5]; final model Run 32, absorption lag): 0.132 h
Molibresib absorption rate ka [5, 9]: 4.08 h⁻¹
Molibresib clearance CL/F [5, 9]: 9.02 L/h
Weight effect on V1/F and mV1/F ([5]; final model Run 32, power estimate of covariate effect): 0.717
IIV on absorption rate ωka2 ([5]; final model Run 32, variance): 1.65
Vd/F ([5]; human, in vivo): 53.1 L
maximum increase in hepatic enzyme amount [5]: 2.1 fold
maximum increase in hepatic enzyme amount ([5]; listed as molibresib): up to 2.1 fold
